PubChem BioAssay AID1259308 | NCATS – 2017
Aim: 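Genes whose loss raises luciferase production in HEK293 cells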 (primary screen). System: human HEK293 embryonic kidney cells stably expressing firefly luciferase (HEK-CMV-Luc2-Hygro). Reagents: single siRNA against human genes, 0.8 pmol siRNA per well. Timing: 72 h. Measurement: 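Reporter luminescence and viable-cell signal on separate replicate plates, given as percent of non-targeting control and median/MAD z-scores, plus per-cell luciferase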. Scale: total luciferase, z-score and total luciferase, % of control: higher = more reporter protein produced. Rule for the call: 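An siRNA counts as active if its total luciferase robust z-score exceeds 3; genes with two or more such siRNAs out of three were retested with fresh siRNAs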. Meaning of the calls: active = raised luciferase; inactive = no rise.
Here is an unselected part of about 59,000 reagents. In the full data, about 1,510 (2.6%) are marked active. 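Calls use total luciferase alone and ignore viability, so some active siRNAs may act by altering cell number.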 A number with no mark means an inactive call. Reagents against one gene are numbered here. Further read-outs or replicates are left out here.

After knock-down of DSC3 #1, the screen gave total luciferase, z-score 0.612; total luciferase, % of control 94.1. Silencing of DSC3 #2 gave: total luciferase, z-score 3.76 (active); total luciferase, % of control 157. Silencing of DSC3 #3 came out at: total luciferase, z-score -0.0346; total luciferase, % of control 81.2. Knock-down of PLCD4 #1 resulted in: total luciferase, z-score -0.355; total luciferase, % of control 74.8. For PLCD4 #2, the entry reads total luciferase, z-score 1.15; total luciferase, % of control 105. PLCD4 #3 scored total luciferase, z-score -1.55; total luciferase, % of control 51.

After knock-down of LANCL1 #1, the record shows total luciferase, z-score 0.251; total luciferase, % of control 86.9. Against LANCL1 #2, the entry reads total luciferase, z-score -0.923; total luciferase, % of control 63.5. Silencing of LANCL1 #3 gave: total luciferase, z-score 0.781; total luciferase, % of control 97.4. Knock-down of ITGB1 #1 gave: total luciferase, z-score -0.306; total luciferase, % of control 75.8. ITGB1 #2 showed total luciferase, z-score 0.225; total luciferase, % of control 86.4. For ITGB1 #3, the entry reads total luciferase, z-score -0.316; total luciferase, % of control 75.6.

Active calls, of those listed so far:
DSC3 #2 → total luciferase, z-score = 3.76 (active); total luciferase, % of control = 157
